PubChem BioAssay AID652243 | Drosophila RNAi Screening Center – 2013

- Aim: 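Fly regulators of androgen-dependent reporter output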 (primary screen)
- System: Drosophila S2R+ cells
- Reagent: long dsRNA against Drosophila genes
- Duration: 72 h (48 h, then 24 h hormone)
- Treatment: synthetic androgen R1881 at 10 nM for 24 h
- Detection: 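Firefly light from an androgen-responsive reporter and Renilla control light per well, raw and unnormalised, for each of two replicates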
- Direction: firefly reporter light: higher = more light from androgen-responsive reporter; Renilla control light: higher = more constitutive control signal (cell number, transfection)
- Active means: 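Across duplicate plates, a knock-down whose log firefly/Renilla ratio shifted a set fold down or up from the GFP/LacZ control mean was a hit; the downward cut appears as both 1.5 and 3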
- Calls: active = hit: reporter lowered or raised; inactive = no hit
In all, the deposit lists about 24,000 reagents; shown is a random part of those with a known target gene and a result. Of all reagents, 246 (1%) got an active call. 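Plates not normalised; calls are printed but the firefly/Renilla ratio behind them is not deposited; fold cut for lowering reported inconsistently.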 The raw values are shown without normalisation. A plus sign joins genes that one reagent is predicted to hit. The record does not give: the amount of reagent.

What is on record for Sr-CIV [DRSC00575]?
firefly reporter light, replicate 1: 1.55e5; firefly reporter light, replicate 2: 1.06e5; Renilla control light, replicate 1: 9.65e5; Renilla control light, replicate 2: 1.06e6; call: inactive

How did the screen score Sr-CIV [DRSC24930]?
firefly reporter light, replicate 1: 7.23e5; firefly reporter light, replicate 2: 6.37e5; Renilla control light, replicate 1: 7.37e5; Renilla control light, replicate 2: 7.00e5; call: inactive

What is on record for slow [DRSC08589]?
firefly reporter light, replicate 1: 1.11e6; firefly reporter light, replicate 2: 7.09e5; Renilla control light, replicate 1: 1.23e6; Renilla control light, replicate 2: 1.51e6; call: inactive

For slow [DRSC08590], how do the results read?
firefly reporter light, replicate 1: 68539; firefly reporter light, replicate 2: 87773; Renilla control light, replicate 1: 1.38e6; Renilla control light, replicate 2: 1.43e6; call: inactive

How did the screen score slow [DRSC26083]?
firefly reporter light, replicate 1: 3.21e5; firefly reporter light, replicate 2: 2.59e5; Renilla control light, replicate 1: 6.70e5; Renilla control light, replicate 2: 7.67e5; call: inactive

For Gmppa [DRSC07108], what was measured?
firefly reporter light, replicate 1: 78383; firefly reporter light, replicate 2: 1.06e5; Renilla control light, replicate 1: 1.52e6; Renilla control light, replicate 2: 1.52e6; call: inactive

What did the screen give for Gmppa [DRSC25683]?
firefly reporter light, replicate 1: 9.19e5; firefly reporter light, replicate 2: 8.90e5; Renilla control light, replicate 1: 1.11e6; Renilla control light, replicate 2: 1.27e6; call: inactive

For 7B2 [DRSC11991], what was measured?
firefly reporter light, replicate 1: 1.13e5; firefly reporter light, replicate 2: 1.50e5; Renilla control light, replicate 1: 2.26e6; Renilla control light, replicate 2: 2.03e6; call: inactive

How did the screen score CG17325 + CG42305 [DRSC02602]?
firefly reporter light, replicate 1: 1.74e5; firefly reporter light, replicate 2: 1.86e5; Renilla control light, replicate 1: 1.92e6; Renilla control light, replicate 2: 2.24e6; call: inactive

For CG34124 [DRSC00849], what was measured?
firefly reporter light, replicate 1: 1.23e5; firefly reporter light, replicate 2: 1.43e5; Renilla control light, replicate 1: 3.66e5; Renilla control light, replicate 2: 3.88e5; call: inactive

With CG6071 [DRSC10579], how do the results read?
firefly reporter light, replicate 1: 1.42e5; firefly reporter light, replicate 2: 1.49e5; Renilla control light, replicate 1: 1.14e6; Renilla control light, replicate 2: 1.18e6; call: inactive

What did the screen give for CG18281 [DRSC11742]?
firefly reporter light, replicate 1: 69061; firefly reporter light, replicate 2: 58842; Renilla control light, replicate 1: 4.73e5; Renilla control light, replicate 2: 4.59e5; call: inactive

How did the screen score CG10834 [DRSC03693]?
firefly reporter light, replicate 1: 2.68e5; firefly reporter light, replicate 2: 2.98e5; Renilla control light, replicate 1: 1.36e6; Renilla control light, replicate 2: 1.65e6; call: inactive

For CG32198 [DRSC09553], how do the results read?
firefly reporter light, replicate 1: 1.71e5; firefly reporter light, replicate 2: 2.55e5; Renilla control light, replicate 1: 2.24e5; Renilla control light, replicate 2: 2.47e5; call: inactive

With CG32198 [DRSC27630], how do the results read?
firefly reporter light, replicate 1: 2.71e5; firefly reporter light, replicate 2: 2.21e5; Renilla control light, replicate 1: 4.98e5; Renilla control light, replicate 2: 8.83e5; call: inactive

Single entries from the list:
slow [DRSC08590], call = inactive
For “firefly reporter light, replicate 2”, CG32198 [DRSC09553] is entered as 2.55e5
